# Measured values from US20040001835A1, “Prevention or treatment of cancer using integrin alphavbeta3 antagonists in combination with other agents” (MedImmune, Inc., priority 2002, published 2004).
# B1: Vitaxin®: humanized blocking monoclonal antibody that binds Integrin αVβ3 (MEDI-522, MedImmune); humanized and optimized version of LM609 (antibody, chains of the INN, looked up, V domains shown)
# VH: QVQLVESGGGVVQPGRSLRLSCAASGFTFSSYDMSWVRQAPGKGLEWVAKVSSGGGSTYYLDTVQGRFTISRDNSKNTLYLQMNSLRAEDTAVYYCARHLHGSFASWGQGTTVTVSS
# VL: EIVLTQSPATLSLSPGERATLSCQASQSISNFLHWYQQRPGQAPRLLIRYRSQSISGIPARFSGSGSGTDFTLTISSLEPEDFAVYYCQQSGSWPLTFGGGTKVEIK
# System: Rabbit αvβ3
# Test: 125-labeled Vitaxin binding affinities and number of binding sites on cell lines
# Description: ^125-labeled Vitaxin® was used to determine binding affinities and number of binding sites for human, rabbit and hamster cell lines. The affinity of Vitaxin® for hamster αvβ3 was approximately 2-3 fold lower than human αvβ3 while its affinity for rabbit αvβ3 was about 4-10 fold lower than human αvβ3.
molecule,measurement,setting,value
B1,Binding Sites,Rabbit RK1 kidney epithelium,4.2 × 10^4
same,Binding Sites,Rabbit VX7 carcinoma,1.6 × 10^5
